# Reference: PubChem BioAssay AID2685 (National Center for Advancing Translational Sciences (NCATS), 2010)
# Some of the results follow. These are further read-outs of the screen, such as a control signal, another cell line or another target. No call is given for them. Most of these compounds were active or inconclusive in the main read-out, so they are no random draw. Potencies come from curve fits of mixed quality, noted in brackets.
# Experiment: qHTS Assay for Lipid Storage Modulators in Drosophila S3 Cells;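 as to cell number change: cells counted by Cell Tracker Red CMTPX staining in the red channel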
# Conditions: BODIPY lipid droplet fluorescence, 18-24 h; for cell number change: measured here: cell count max response, cells fed with added oleic acid
# Outline: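 Drosophila S3 cells got compounds at several concentrations plus oleic acid (400 uM solution). Laser-scanning cytometry with 488 nm excitation read lipid droplets at 500-530 nm and cells at 575-640 nm. Percent activity was relative to 20 uM Triacsin C.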
# [1] = measured here: cell number channel AC50, cells fed with added oleic acid
# [2] = measured here: lipid fluorescence (Fed channel) AC50, cells fed with added oleic acid
SMILES,cell number change [%],AC50 [1],AC50 [2]
O=C(CN1CCCCCC1)Nc1ccc(Br)cc1,7.5,"4.11 µM [falling, partial curve, poor fit]","0.731 µM [falling, single point]"
Cc1ccc(C)n1-c1ccc(C(=O)NN)cc1,3.54,,"2.91 µM [rising, single point]"
CCC(C)(C)C1CCC2(CC1)NC(=O)N(CC(=O)Nc1cc(C(F)(F)F)ccc1N1CCOCC1)C2=O (configuration not stated),-7.18,,
COc1ccccc1C(CNC(=O)CCNC(=O)c1ccccc1Cl)N1CCCC1 (configuration not stated),5.36,"5.8 µM [falling, single point]",
Cc1cc2nc3c(=O)n(C4CCCCC4)c(=O)[nH]c3nc2cc1N,0.91,,"11.6 µM [falling, partial curve]"
Cc1ccc(S(=O)(=O)/N=C(\Nc2cc(C)on2)c2ccc(Cl)cc2)cc1,4.07,"0.13 µM [falling, full curve, poor fit]","6.51 µM [rising, partial curve]"
COc1ccccc1CCc1nnc(N)s1,16.3,,
CCOC(=O)C1(CC/C(C)=N\NC(N)=O)CC(C)OC1=O (configuration not stated),5.62,"6.51 µM [rising, single point]","8.2 µM [rising, partial curve]"
Cc1ccc2[nH]c(-c3ccccc3)c(CN(C)C)c(=O)c2c1,-46.7,"18.4 µM [falling, single point]",
COn1c(-c2ccc(Cl)cc2)nc2ncccc21,-0.118,,"7.31 µM [rising, partial curve]"
COc1ccc(S(=O)(=O)Nc2ccc(CC#N)cc2)cc1,-21.4,,"20.6 µM [falling, single point]"
O=C(NCCS(=O)(=O)NCc1ccccc1)c1ccc2c(c1)OCO2,-18.1,,"6.51 µM [falling, single point]"
COc1ccc(OC)c(NC(=O)Cn2c(CCC(=O)O)ccc2-c2cccs2)c1,0.255,,"16.4 µM [rising, single point]"
O=C(Nc1nc2ccccc2[nH]1)C1CCN(S(=O)(=O)c2cccs2)CC1,,,"0.58 µM [rising, single point]"
CCn1c(COc2ccc(C)cc2)nnc1SCC(=O)Nc1ccc(S(N)(=O)=O)cc1,-0.171,,
C=CCn1c(SCc2ccc(C(=O)OC)cc2)nnc1-c1sc(N)nc1C,15.5,,"7.31 µM [rising, partial curve, poor fit]"
O=C(Nc1ccccc1)c1ccc(S(=O)(=O)NCC2CCCO2)cc1 (configuration not stated),-28.6,"0.164 µM [falling, full curve, poor fit]",
COC(=O)CN(c1ccc(C)cc1)S(=O)(=O)c1c(C)[nH]c(=O)[nH]c1=O,-38.2,"0.461 µM [falling, full curve, poor fit]",
CCN(CC)CC(=O)NCC1(c2ccccc2)CCCC1,-6.71,,"3.66 µM [falling, full curve, poor fit]"
N=c1oc2ccccc2cc1-c1nc2ccccc2c(=O)[nH]1,70.8,"0.259 µM [rising, full curve]","0.116 µM [rising, full curve]"

SMILES,cell number change [%],AC50 [1],AC50 [2]
Oc1cccc(-c2nc3c4c(ncn3n2)-c2ccccc2CC42CCCC2)c1,-78,"6.51 µM [falling, full curve, poor fit]",
CCCC(=O)Nc1nnc(S(=O)(=O)N2CCCCCC2)s1,-4.49,,"6.51 µM [rising, single point]"
COc1ccc(NC(=O)CSc2nnnn2C2CC2)cc1S(=O)(=O)N1CCOCC1,5.95,,"6.51 µM [rising, single point]"
CCOc1c2ccc(C(=O)NCCc3ccc(C)cc3)cc2nn1CC,93,"11.6 µM [rising, partial curve]",
COc1ccc(C)cc1NC(=O)c1nn(C)c(C(=O)Nc2cc(C)ccc2OC)c1[N+](=O)[O-],-4.2,,"29.1 µM [rising, single point]"
CCOc1ccc(/C=N/Nc2nncc(-c3ccccc3)n2)cc1OC,53.8,"5.8 µM [rising, full curve]","2.31 µM [rising, single point]"
O=C(OCc1cc([N+](=O)[O-])cc2c1OCOC2)c1ccc2ccccc2n1,-4.78,"6.51 µM [rising, single point]",
O=C1CCCc2cc3c(cc21)CC1(C3)Cc2cc3c(cc2C1)C(=O)CCC3,64.8,"29.1 µM [rising, single point]","29.1 µM [rising, single point]"
COc1cc(CNS(=O)(=O)c2ccc3c(c2)CC(C)N3C(=O)C2CCC2)cc(OC)c1OC (configuration not stated),,"2.31 µM [falling, partial curve]","2.06 µM [falling, partial curve]"
Cn1nnnc1SCCNCc1ccccc1OCc1ccccc1Cl,16.3,,
O=C(CCn1cccc1)Nc1ccc(F)cc1,1.9,,
CCOc1ccc(C2C(=O)N(C3CCCCC3)CC(=O)N2CC2CCCO2)cc1OC (configuration not stated),16.1,,
O=C(NCCN1CCOCC1)c1cc(-c2ccc(Cl)cc2)on1,5.88,,"0.731 µM [rising, partial curve, poor fit]"
CCn1cc(S(=O)(=O)c2ccc(OC)cc2)c(=O)c2cc(F)c(N3CCN(C)CC3)cc21,34,"29.1 µM [rising, single point]",
O=C(O)C1CCN(S(=O)(=O)c2ccc(Oc3ccccc3)cc2)CC1,0.567,,"6.51 µM [falling, single point]"
Cc1cc(Cl)ccc1OC(C)C(=O)NCCCCc1ccccc1 (configuration not stated),0.542,,"1.16 µM [falling, full curve]"
OCC[C@@H]1C[C@H](O)[C@@H](O)[C@]2(Cc3ccccc3CO2)O1,8.38,,"6.51 µM [falling, single point]"
Cc1c(C#N)c2ncnc(-c3ccccc3)c2n1-c1ccccc1,0.656,,"0.058 µM [rising, full curve, poor fit]"
O=C(CN(Cc1cccs1)C(=O)CNS(=O)(=O)c1ccccc1)NCc1ccco1,25.3,,"29.1 µM [rising, single point]"

# A few values from the list.
# In AC50 [1], CCOC(=O)C1(CC/C(C)=N\NC(N)=O)CC(C)OC1=O (configuration not stated) is listed with 6.51 µM [rising, single point]
# In AC50 [2], N=c1oc2ccccc2cc1-c1nc2ccccc2c(=O)[nH]1 is listed with 0.116 µM [rising, full curve]
